In paper PMC3226675:
Results are given in words; binding and its absence hold for the method and conditions named. For part of these data: Binding calls can cover weak binding; strength is not graded here. Sequences can lack the tags named with a protein. For part of these data: In cells and extracts the contact can be indirect.

T1: GST-Upf1 (417-1118) (human) (UniProt Q92900)
T1 sequence: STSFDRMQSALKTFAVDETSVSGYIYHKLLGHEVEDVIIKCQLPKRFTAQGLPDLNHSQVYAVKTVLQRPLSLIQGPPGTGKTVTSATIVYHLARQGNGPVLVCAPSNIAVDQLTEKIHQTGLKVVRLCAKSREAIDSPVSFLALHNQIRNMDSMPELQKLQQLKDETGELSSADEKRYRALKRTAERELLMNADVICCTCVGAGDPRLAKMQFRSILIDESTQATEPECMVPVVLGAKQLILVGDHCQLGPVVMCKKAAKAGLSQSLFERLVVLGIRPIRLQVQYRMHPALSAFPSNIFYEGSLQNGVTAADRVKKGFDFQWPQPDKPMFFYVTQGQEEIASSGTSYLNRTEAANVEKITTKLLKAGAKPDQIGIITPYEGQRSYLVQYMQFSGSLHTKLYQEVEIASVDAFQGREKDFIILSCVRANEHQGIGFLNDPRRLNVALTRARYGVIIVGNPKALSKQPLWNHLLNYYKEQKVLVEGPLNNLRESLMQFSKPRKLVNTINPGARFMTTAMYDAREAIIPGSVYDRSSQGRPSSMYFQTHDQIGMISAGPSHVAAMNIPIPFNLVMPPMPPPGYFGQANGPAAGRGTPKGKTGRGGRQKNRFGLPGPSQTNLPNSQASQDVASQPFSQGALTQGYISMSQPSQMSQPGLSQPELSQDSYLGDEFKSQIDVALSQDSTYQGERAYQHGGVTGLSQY

T2: GST-Upf1 (1-417) (human) (UniProt Q92900)
T2 sequence: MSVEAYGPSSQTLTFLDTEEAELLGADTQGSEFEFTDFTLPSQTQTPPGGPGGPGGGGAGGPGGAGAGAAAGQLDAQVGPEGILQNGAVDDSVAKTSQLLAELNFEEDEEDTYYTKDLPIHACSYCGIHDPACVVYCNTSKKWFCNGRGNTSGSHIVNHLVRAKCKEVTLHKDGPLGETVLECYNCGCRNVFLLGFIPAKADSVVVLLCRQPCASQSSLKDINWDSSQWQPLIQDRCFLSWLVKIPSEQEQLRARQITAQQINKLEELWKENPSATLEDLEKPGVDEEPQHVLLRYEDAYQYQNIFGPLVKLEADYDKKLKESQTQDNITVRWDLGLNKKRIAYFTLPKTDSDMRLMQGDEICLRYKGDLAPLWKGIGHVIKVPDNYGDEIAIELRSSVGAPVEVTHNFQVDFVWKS


Key:
[1] = target: T1, GST-Upf1 (417-1118) (human); assay: pull-down; in vivo binding: Stau2 and Upf1 expression vectors co-transfected in 293F cells; lysate with 20 ug/ml RNase A, 20 mM Tris-HCl pH 7.5, 150 mM NaCl, 1 mM DTT, 0.5% Tween 20; GST-Upf1 or its deletion mutants pulled down with glutathione Sepharose, 2 h at 4 C; Western blotting
GST-Upf1 (1-417) (human) = target: T2, GST-Upf1 (1-417) (human); assay: as above
[2] = target: GST-fused Stau2 (rat Staufen2, isoform Stau2^59) (rat); assay: pull-down; in vitro binding: recombinant FLAG-Upf1 (5 ug) mixed with recombinant GST-Stau2 (1 ug) or GST (1 ug) in 20 mM Tris-HCl pH 7.5, 150 mM NaCl, 1 mM DTT, 0.05% Tween 20, 4 C for 2 hr; precipitated with glutathione-Sepharose 4B; SDS-PAGE and CBB staining; both purified

| binding [1] | binding (GST-Upf1 (1-417) (human)) | binding [2] | Molecule |
| --- | --- | --- | --- |
| no binding | binds |  | FLAG-Stau2 (rat) |
|  |  | binds | Recombinant FLAG-Upf1 protein (protein, UniProt Q92900-2 1-1118) MSVEAYGPSSQTLTFLDTEEAELLGADTQGSEFEFTDFTLPSQTQTPPGGPGGPGGGGAGGPGGAGAGAAAGQLDAQVGPEGILQNGAVDDSVAKTSQLLAELNFEEDEEDTYYTKDLPIHACSYCGIHDPACVVYCNTSKKWFCNGRGNTSGSHIVNHLVRAKCKEVTLHKDGPLGETVLECYNCGCRNVFLLGFIPAKADSVVVLLCRQPCASQSSLKDINWDSSQWQPLIQDRCFLSWLVKIPSEQEQLRARQITAQQINKLEELWKENPSATLEDLEKPGVDEEPQHVLLRYEDAYQYQNIFGPLVKLEADYDKKLKESQTQDNITVRWDLGLNKKRIAYFTLPKTDSDMRLMQGDEICLRYKGDLAPLWKGIGHVIKVPDNYGDEIAIELRSSVGAPVEVTHNFQVDFVWKSTSFDRMQSALKTFAVDETSVSGYIYHKLLGHEVEDVIIKCQLPKRFTAQGLPDLNHSQVYAVKTVLQRPLSLIQGPPGTGKTVTSATIVYHLARQGNGPVLVCAPSNIAVDQLTEKIHQTGLKVVRLCAKSREAIDSPVSFLALHNQIRNMDSMPELQKLQQLKDETGELSSADEKRYRALKRTAERELLMNADVICCTCVGAGDPRLAKMQFRSILIDESTQATEPECMVPVVLGAKQLILVGDHCQLGPVVMCKKAAKAGLSQSLFERLVVLGIRPIRLQVQYRMHPALSAFPSNIFYEGSLQNGVTAADRVKKGFDFQWPQPDKPMFFYVTQGQEEIASSGTSYLNRTEAANVEKITTKLLKAGAKPDQIGIITPYEGQRSYLVQYMQFSGSLHTKLYQEVEIASVDAFQGREKDFIILSCVRANEHQGIGFLNDPRRLNVALTRARYGVIIVGNPKALSKQPLWNHLLNYYKEQKVLVEGPLNNLRESLMQFSKPRKLVNTINPGARFMTTAMYDAREAIIPGSVYDRSSQGRPSSMYFQTHDQIGMISAGPSHVAAMNIPIPFNLVMPPMPPPGYFGQANGPAAGRGTPKGKTGRGGRQKNRFGLPGPSQTNLPNSQASQDVASQPFSQGALTQGYISMSQPSQMSQPGLSQPELSQDSYLGDEFKSQIDVALSQDSTYQGERAYQHGGVTGLSQY |
